# Screening data

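293T-iDUX4 cells carrying a ZSCAN4-driven Gaussia luciferase and a tet-on Italica luciferase control; the gap between the two luminescence signals is read after 24 h. The test concentration is not given here. Percent difference between the Gaussia and Italica channels; more negative values mean more selective suppression of the DUX4 reporter, and higher values mean less activity.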

Values are in %. How 0% and 100% were set is not given here. Common to all entries: measured here: selective DUX4 reporter inhibition. Part of the compounds only, not a random draw; the main read-out is not listed here.

{"structure": "Cc1ccc(S(=O)(=O)N2CC[C@H]3[C@@H](CO)N(C)c4ccc(-c5cccc(C#N)c5)cc4[C@H]32)cc1", "Gaussia minus Italica difference (%)": "0.7052"}
{"structure": "N#Cc1cccc(-c2ccc3c(c2)[C@@H]2[C@@H](CCN2S(=O)(=O)c2ccccc2F)[C@@H](CO)N3)c1", "Gaussia minus Italica difference (%)": "8.133"}
{"structure": "COc1cccc(S(=O)(=O)N2C[C@@H]3N[C@H](C2)C3c2ccc(-c3cccc(C)c3)cc2)c1", "stereo": "stereo partly shown", "Gaussia minus Italica difference (%)": "-15.42"}
{"structure": "N#Cc1cccc(-c2ccc3c(c2)[C@H]2[C@H](CCN2S(=O)(=O)c2ccccc2)[C@H](CO)N3)c1", "Gaussia minus Italica difference (%)": "8.939"}
{"structure": "COc1ccc2c3c(n(C)c2c1)[C@H](CO)N(Cc1ccccc1)CC31CN(C(=O)c2ccccc2F)C1", "Gaussia minus Italica difference (%)": "-11.04"}
{"structure": "O=C(C1CC1)N1CC2(C1)[C@H](c1ccccc1)[C@H](CO)N2CC1CCCC1", "Gaussia minus Italica difference (%)": "-14.64"}
{"structure": "N#C[C@@H]1[C@@H](c2ccccc2C2=CCCC2)[C@H](CO)N1C(=O)NC1CCCCC1", "Gaussia minus Italica difference (%)": "-5.882"}
{"structure": "O=C(C[C@H]1C[C@@H]2c3cc(NS(=O)(=O)c4ccc(F)cc4)ccc3O[C@@H]2[C@H](CO)O1)NCc1ccc(Oc2ccccc2)cc1", "Gaussia minus Italica difference (%)": "-1.746"}
{"structure": "Cc1ccccc1S(=O)(=O)N1CC[C@@H]2[C@@H](CO)N(C)c3ccc(-c4cccc(C#N)c4)cc3[C@@H]21", "Gaussia minus Italica difference (%)": "-13.86"}
{"structure": "COc1ccc2c3c(n(C)c2c1)[C@H](CO)N(C(=O)Nc1ccc(F)cc1)CC31CN(S(=O)(=O)c2cccc(F)c2)C1", "Gaussia minus Italica difference (%)": "-6.941"}
{"structure": "CN(C)C(=O)c1cccc(-c2ccc3c(c2)[C@H]2[C@H](CCN2C(=O)c2ccccc2)[C@@H](CO)N3C)c1", "Gaussia minus Italica difference (%)": "12.97"}
{"structure": "CN(C)C(=O)c1cccc(-c2ccc3c(c2)[C@H]2[C@H](CCN2C(=O)Cc2ccccc2)[C@@H](CO)N3)c1", "Gaussia minus Italica difference (%)": "-3.541"}
{"structure": "COc1ccc(C#Cc2ccc([C@@H]3[C@H](CO)N4CCCCN(Cc5ccccc5F)C[C@@H]34)cc2)cc1", "Gaussia minus Italica difference (%)": "-6.492"}
{"structure": "COCCNC(=O)C[C@@H]1CC[C@@H]2[C@H](COC[C@H](O)CN2Cc2cccc(-c3ccncc3)c2)O1", "Gaussia minus Italica difference (%)": "-2.092"}
{"structure": "COc1ccc(CN2C[C@@H](O)COC[C@@H]3O[C@@H](CC(=O)N4CCc5ccccc5C4)CC[C@H]32)cc1", "Gaussia minus Italica difference (%)": "-12.82"}
{"structure": "O=C(Nc1ccc2c(c1)OCO2)N1C[C@@H]2N[C@H](C1)C2c1ccc(C=Cc2ccccc2)cc1", "stereo": "stereo partly shown", "Gaussia minus Italica difference (%)": "13.54"}
{"structure": "COc1ccccc1S(=O)(=O)N1CC[C@@H]2[C@H]1c1cc(-c3ccc(F)cc3)ccc1N[C@@H]2CO", "Gaussia minus Italica difference (%)": "19.02"}
{"structure": "O=C(c1ccccc1F)N1CC(=O)N2[C@H](C1)[C@H](c1ccc(C#Cc3ccccc3)cc1)[C@@H]2CO", "Gaussia minus Italica difference (%)": "-11.89"}
{"structure": "C[C@@H]1CN([C@@H](C)CO)C(=O)c2c(c3ccccc3n2C)-c2ccccc2CO[C@@H]1CN(C)C(=O)[C@@H](Cc1ccccc1)N(C)C", "Gaussia minus Italica difference (%)": "-2.061"}
{"structure": "O=S(=O)(c1ccccc1)N1CCCCN2[C@@H](CO)[C@H](c3ccc(-c4ccccc4F)cc3)[C@@H]2C1", "Gaussia minus Italica difference (%)": "-9.049"}
{"structure": "O=C(c1cccnc1)N1CC(=O)N2[C@@H](CO)[C@H](c3ccc(C#CCC4CCCC4)cc3)[C@@H]2C1", "Gaussia minus Italica difference (%)": "-9.791"}
{"structure": "O=C(C1CCCCC1)N1CC2(C1)[C@H](c1ccccc1)[C@H](CO)N2Cc1nccs1", "Gaussia minus Italica difference (%)": "-2.538"}
{"structure": "COc1ccc2c3c([nH]c2c1)[C@H](CO)N(Cc1cccc(F)c1)CC31CN(CC2CC2)C1", "Gaussia minus Italica difference (%)": "-7.236"}
{"structure": "COc1ccc(NC(=O)N2CCCCN3[C@H](CO)[C@H](c4ccc(C#CCC(C)C)cc4)[C@@H]3C2)cc1", "Gaussia minus Italica difference (%)": "-5.196"}
{"structure": "COc1ccc2c3c([nH]c2c1)[C@@H](CO)N(Cc1cccc(F)c1)CC31CCN(Cc2ccccn2)CC1", "Gaussia minus Italica difference (%)": "-3.903"}
{"structure": "N#Cc1cccc(-c2ccc(C3[C@@H]4CN(Cc5ccccc5F)C[C@H]3N4)cc2)c1", "stereo": "stereo partly shown", "Gaussia minus Italica difference (%)": "-13.07"}
{"structure": "COc1ccc(C#Cc2ccc([C@@H]3[C@H](CO)N4CCCCN(C(=O)Nc5cccc(F)c5)C[C@@H]34)cc2)cc1", "Gaussia minus Italica difference (%)": "-1.597"}
{"structure": "C[C@@H]1CN([C@@H](C)CO)C(=O)c2c(c3ccccc3n2C)-c2ccccc2CO[C@@H]1CN(C)S(=O)(=O)c1ccc(F)cc1", "Gaussia minus Italica difference (%)": "-13.59"}
{"structure": "COc1ccccc1S(=O)(=O)N1CC[C@@H]2[C@H](CO)Nc3ccc(-c4ccc(F)cc4)cc3[C@@H]21", "Gaussia minus Italica difference (%)": "23.63"}
{"structure": "O=C(C[C@H]1CC[C@H]2[C@@H](COC[C@H](O)CN2Cc2nccs2)O1)NCc1ccc(-c2ccccc2)cc1", "Gaussia minus Italica difference (%)": "-3.641"}
{"structure": "COc1ccc(-c2ccc3c(c2)[C@H]2[C@H](CCN2C(=O)c2ccc4c(c2)OCO4)[C@@H](CO)N3)cc1", "Gaussia minus Italica difference (%)": "-4.578"}
{"structure": "CCCNC(=O)N1CC(=O)N2[C@H](C1)[C@@H](c1ccc(C#Cc3cccc(F)c3)cc1)[C@@H]2CO", "Gaussia minus Italica difference (%)": "-7.802"}
{"structure": "Cn1cnc(S(=O)(=O)N2CCCCN3[C@H](C2)[C@@H](c2ccc(-c4cccc(F)c4)cc2)[C@@H]3CO)c1", "Gaussia minus Italica difference (%)": "7.067"}
{"structure": "O=C1CN(S(=O)(=O)Cc2ccccc2)C[C@@H]2[C@H](c3ccc(C#CCC4CCCC4)cc3)[C@H](CO)N12", "Gaussia minus Italica difference (%)": "-21.6"}
{"structure": "COc1cccc(CN2CCCCN3[C@H](CO)[C@@H](c4ccc(C#Cc5cccnc5)cc4)[C@H]3C2)c1", "Gaussia minus Italica difference (%)": "-21.26"}
{"structure": "CS(=O)(=O)N1CC(=O)N2[C@H](CO)[C@@H](c3ccc(C#Cc4ccccc4)cc3)[C@@H]2C1", "Gaussia minus Italica difference (%)": "-9.44"}
{"structure": "CN1c2ccc(C3=CCCCC3)cc2[C@H]2[C@H](CCN2C(=O)C2CCCCC2)[C@H]1CO", "Gaussia minus Italica difference (%)": "-10.37"}
{"structure": "C[C@@H]1CN([C@@H](C)CO)C(=O)CCCn2nncc2CO[C@@H]1CN(C)Cc1ccc(-c2ccccc2)cc1", "Gaussia minus Italica difference (%)": "-6.149"}
{"structure": "Cc1ccccc1-c1ccc([C@@H]2[C@H](CO)N3CCCCN(S(=O)(=O)c4ccc(F)cc4)C[C@@H]23)cc1", "Gaussia minus Italica difference (%)": "-20.22"}

Once more, the final 2:

structure	Gaussia minus Italica difference (%)
C[C@@H]1CN([C@@H](C)CO)C(=O)CCCn2nncc2CO[C@@H]1CN(C)Cc1ccc(-c2ccccc2)cc1	-6.149
Cc1ccccc1-c1ccc([C@@H]2[C@H](CO)N3CCCCN(S(=O)(=O)c4ccc(F)cc4)C[C@@H]23)cc1	-20.22

From PubChem BioAssay record AID1224904 (Broad Institute, 2016).